According to PMC6315388 (Biomedicines, 2018):

Test: general procedure: Fmoc solid-phase peptide synthesis; Rink amide resin (Lys(Boc)-NH-Rink resin 11); HBTU/DIEA; DIC/HOBt
Conditions: whole synthesis, formate (FA) salt; for crude purity (method not given) / final purity (method not given): analytical RP-HPLC, LC-MS of cleaved resin aliquots; for isolated yield: on resin loading

Row | Substance | crude purity (method not given) [%] | final purity (method not given) [%] | isolated yield [%] | crude purity (method not given) (run 1) [%] | crude purity (method not given) (run 2) [%]
1 | H-His-D-Trp-Ala-(4-MeO)AsF-D-Phe-Lys-NH2 | 75 | >99 | 10 | – | –
2 | H-His-D-Trp-Ala-AsF(4-HO)-D-Phe-Lys-NH2 | 70 | >99 | 9 | – | –
3 | H-Ala-D-Trp-Ala-AsF(4-F)-D-Phe-Lys-NH2 | 79 | >99 | 23 | – | –
4 | H-His-D-Trp-Ala-(4-F)AsF-D-Phe-Lys-NH2 | 65 | >99 | 3 | – | –
5 | H-His-D-Trp-Ala-AsF-D-Phe-Lys-NH2 | – | >99 | 12 | 73 | 82
6 | H-His-D-Trp-Ala-AsNal-D-Phe-Lys-NH2 | 61 | >99 | 10 | – | –
